The values below come from article PMC7819943, “Rice protein-binding microarrays: a tool to detect cis-acting elements near promoter regions in rice”.

This is one part of the list.

This test addresses T1, OsSMF1 (Oryza sativa, UniProt Q6ZLB0 1-436).
T1 sequence: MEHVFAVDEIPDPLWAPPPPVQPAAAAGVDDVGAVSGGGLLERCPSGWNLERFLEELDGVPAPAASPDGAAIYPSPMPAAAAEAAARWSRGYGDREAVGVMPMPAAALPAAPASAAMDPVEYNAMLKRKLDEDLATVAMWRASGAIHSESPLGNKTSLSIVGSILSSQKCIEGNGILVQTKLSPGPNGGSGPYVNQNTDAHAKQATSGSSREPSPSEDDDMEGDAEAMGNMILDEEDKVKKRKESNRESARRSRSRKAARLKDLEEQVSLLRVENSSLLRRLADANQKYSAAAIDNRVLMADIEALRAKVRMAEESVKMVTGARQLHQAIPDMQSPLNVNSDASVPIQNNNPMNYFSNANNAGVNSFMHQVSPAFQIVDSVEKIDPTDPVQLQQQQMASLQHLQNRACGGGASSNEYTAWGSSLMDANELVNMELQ
Briefly: protein-binding microarray (RPBM); PBS, 2% BSA, 51.3 ng/ul salmon testes DNA, 50 uM zinc acetate, 200 nM TF, 25 C, 1 h; high values mean tight binding. The note with it: protein: recombinant; tags: N-terminal polyhistidine and DsRed monomer fusion (pET32a); chain copies: 2; label: CyDye5-dUTP incorporated in the synthesized complementary strand; 3' TTTTT single-stranded linker to array surface; dsDNA, one strand shown. In outline: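 In PBS with 2% BSA, salmon testes DNA and 50 µM zinc acetate, 200 nM protein was incubated on a custom Agilent array at 25 °C for 1 h and then washed off. The array had been made double-stranded by primer extension with Cy5-dUTP and blocked with 2% BSA. The proteins were transcription factors fused N-terminally to polyhistidine and DsRed, expressed in E. coli BL21-CodonPlus and purified on Ni–NTA. The binding signal is per-feature fluorescence intensity (arbitrary units) from an Axon 4000B scanner.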
Consider “CCATTAACCAACCTCGCGTCATCTCTCCCATCTCCCATATCGGAGTCACCTAGTGCAG”, for which the binding signal was 3220 fluorescence intensity (a.u.).

“AGTAATACTCAAGGAAAAGGAGATGTCAGTCACGGTCACACGGAGTCACCTAGTGCAG”: the binding signal was 3220 fluorescence intensity (a.u.).

Regarding “TCTAATTAGCTAGGTCCATTGATTCATCATCATCTCCATTCGGAGTCACCTAGTGCAG”, the binding signal is 4260 fluorescence intensity (a.u.).

As to “ATAAAGTCTTTAGACCGTCCTATTTGACCCAGATAATATTCGGAGTCACCTAGTGCAG”, the binding signal was 3730 fluorescence intensity (a.u.).

On to “CCTCACTCTCGTGGGCTCACCACCTCACCTCGCTATAAGTCGGAGTCACCTAGTGCAG”, for which the binding signal is 3340 fluorescence intensity (a.u.).

Take “AACGAATCTTTTAAGCTTAATTGCGTCATGATTTGACAATCGGAGTCACCTAGTGCAG”: the binding signal was 3960 fluorescence intensity (a.u.).

With “GTTGTCAGTTGGATAGAACCAGTCCAGGAACGTGTGGCCCCGGAGTCACCTAGTGCAG”, the binding signal was 3240 fluorescence intensity (a.u.).

On to “CTAGCTTAATCTTTCTTCGTTGTTCTACATCCTGCTAGTTCGGAGTCACCTAGTGCAG”, for which the binding signal was 20600 fluorescence intensity (a.u.).

Consider “TTATTAGTAGTCTCCTTGGATCAGGTGGAGCTTGCTTGTTCGGAGTCACCTAGTGCAG”, for which the binding signal is 3610 fluorescence intensity (a.u.).

“CTGAAACCAACATCCAAGTCATCATGTCCAAGATGTCTCCCGGAGTCACCTAGTGCAG”: the binding signal was 6640 fluorescence intensity (a.u.).

For “ACCATACGGTGGGCGGCGACAAAGGCGACGCGGCGTGTTTCGGAGTCACCTAGTGCAG”, the binding signal is 4160 fluorescence intensity (a.u.).

On to “GTGCGACACCTACCTGTCGCTGACCATGGTGATCCGCTTCCGGAGTCACCTAGTGCAG”, for which the binding signal was 3610 fluorescence intensity (a.u.).

“TCAGGAACTGGTCGGTGAAGTGCGGCCACGCCACCACCGGCGGAGTCACCTAGTGCAG”: the binding signal is 3370 fluorescence intensity (a.u.).

For the sequence “TCGACGAATATATAATTAGTCCCTGTCCCACGTGCCATTTCGGAGTCACCTAGTGCAG”, the binding signal is 5070 fluorescence intensity (a.u.).

As to “GCCGTGCAATGACACTAGCCATTGTGACTGGCCTAATTGCCGGAGTCACCTAGTGCAG”, the binding signal was 15200 fluorescence intensity (a.u.).

In the case of “TTGAATGCTTTGTATCGTCGTCATCATCAGTGAAGGCTACCGGAGTCACCTAGTGCAG”, the binding signal is 3510 fluorescence intensity (a.u.).

Take “TTTTATTTCATTATATGATCCCATCAAATATAAATTAGCACGGAGTCACCTAGTGCAG”: the binding signal is 48500 fluorescence intensity (a.u.).

Take “AGAGAGGGAGGGCAGAGGCCTTTGGTGTCCCTTCCAGTCACGGAGTCACCTAGTGCAG”: the binding signal is 3200 fluorescence intensity (a.u.).

For “TTGTTGATTTGTGCCAGTTTTCTCCTATTTCAGTTAGTAGCGGAGTCACCTAGTGCAG”, the binding signal is 3400 fluorescence intensity (a.u.).

Consider “TGGTGGGTTTCGGGTCCGCGCCTGCGCCGATGCGGCGATGCGGAGTCACCTAGTGCAG”, for which the binding signal is 18200 fluorescence intensity (a.u.).

“TGCTGCAGCATGCATGTATGACAAGGCTCTGCACTATGACCGGAGTCACCTAGTGCAG”: the binding signal is 3190 fluorescence intensity (a.u.).

“AAAAGGTTGGCGTCATTTTGTAGTATATACGTGTAGGTGTCGGAGTCACCTAGTGCAG”: the binding signal was 4510 fluorescence intensity (a.u.).

For the sequence “TTTCAGTGAACAGATTATTCGGCGATGATGACTCCTGGTACGGAGTCACCTAGTGCAG”, the binding signal was 3640 fluorescence intensity (a.u.).

On to “CCACCACGTACAGTGCTTTCCTAGGCAGAAGCCCACTATCCGGAGTCACCTAGTGCAG”, for which the binding signal was 3490 fluorescence intensity (a.u.).

Regarding “AATTGATCTTCAGAGCCCACGTAGGTATTAGACTTTCCTACGGAGTCACCTAGTGCAG”, the binding signal is 6290 fluorescence intensity (a.u.).

As for “TATAGTCTACTTAACTAGCTAATTAAGCCATTGCAACGGGCGGAGTCACCTAGTGCAG”, the binding signal was 3840 fluorescence intensity (a.u.).

On to “GAACAAACTATCTCACGATCTCACCGTTTAGTCCTTGATGCGGAGTCACCTAGTGCAG”, for which the binding signal is 3630 fluorescence intensity (a.u.).

On to “CCTCAATGACATGTGGGTCTATATATGTCTATGACATGTGCGGAGTCACCTAGTGCAG”, for which the binding signal was 3540 fluorescence intensity (a.u.).

For the sequence “CTCCTCCTCGCCTCCTCGGTGACTCCGCCCGCCGCCGCTGCGGAGTCACCTAGTGCAG”, the binding signal is 3290 fluorescence intensity (a.u.).

In the case of “CAGGTAGCTGCATCGGGCCGCGGGCGCCACCACAACCAGCCGGAGTCACCTAGTGCAG”, the binding signal was 3300 fluorescence intensity (a.u.).

Turning to “CCTTGCTAACTCATCTCAATGCCATCTATAAATTCAGCATCGGAGTCACCTAGTGCAG”, the binding signal is 3140 fluorescence intensity (a.u.).

On to “GAATGACTGAATCTGATCTGTCAGATTGCCTGATGGTTCTCGGAGTCACCTAGTGCAG”, for which the binding signal was 3680 fluorescence intensity (a.u.).

“GCACCACCGGCGCATCGCGCGTCCTCATCCAGCGAAGCCGCGGAGTCACCTAGTGCAG”: the binding signal is 3660 fluorescence intensity (a.u.).

“GTAATGTGAAAGGGGACGGTGTCAGCGTCATTGCACCAAGCGGAGTCACCTAGTGCAG”: the binding signal was 3310 fluorescence intensity (a.u.).

For “GATTGCTTTGAAGCTGTCGTCGTGGCAATTGCTTCCCGCGCGGAGTCACCTAGTGCAG”, the binding signal is 5630 fluorescence intensity (a.u.).

Take “CGGTGGCGGGAACATGTGGGCGGTGGCAGGAGTGCAGGTGCGGAGTCACCTAGTGCAG”: the binding signal is 3810 fluorescence intensity (a.u.).

Turning to “GGTGCGCGTGCCGGCCATTGATGTCACAATTATCGGGCCCCGGAGTCACCTAGTGCAG”, the binding signal is 3890 fluorescence intensity (a.u.).

“TAGTTTAATACTAGTCATCAGCGTAGCATGGCTGTCAAGTCGGAGTCACCTAGTGCAG”: the binding signal was 3540 fluorescence intensity (a.u.).

“CTTGTCCACCAGCTGCCGAATCACCACCACCATCACAACCCGGAGTCACCTAGTGCAG”: the binding signal was 5660 fluorescence intensity (a.u.).

On to “AACCCACGCCCGAGCCAGAGCCAGGTCGCCGCGCCACCTCCGGAGTCACCTAGTGCAG”, for which the binding signal was 3650 fluorescence intensity (a.u.).

For the sequence “ATATATATATATATATATTGTGAGGGGATCTAGTGCCTGGCGGAGTCACCTAGTGCAG”, the binding signal is 3320 fluorescence intensity (a.u.).

With “TGATGATGAGTTGGGGTTGATTCGTGCTCTATACCACCCCCGGAGTCACCTAGTGCAG”, the binding signal was 3310 fluorescence intensity (a.u.).
